{
  "source": "paper PMC8473790",
  "biological_target": "Cdc42 (Pyricularia oryzae) (UniProt G4NC11)",
  "experiment": "two-hybrid",
  "note": "Results are given in words; binding and its absence hold for the method and conditions named. A result given as binding can be weak or reduced; the word gives no strength.",
  "data": [
    {"binder": "Mst50 (protein, UniProt G4N525 1-489) MSFNTGTAYAESDADDEYERDIHDSSPIDATDAEASPTESDPPSNEHTPTTYGYRSSADRLPETIISEWTADECADFIATIGLEQYSTRFVENEIVGEALVALLHDDLKSMGIHSVGHRLTILRSVYDVKKAQDVPVESDHYVPLTAENEGQYATAKDIKNLVEQLRLRDERMHLFEQDFRRLAEDFRRLREDMLPALRLAKDAQQPLPHLNNGSAYAGYDTTISPPAPTPSTSGQSGGGLKRQWSTKKIMLGTTPKATSPTHLQTAHDRSLAEQTLDPSSAAERAVMSSSHLAINGLVPSATSPSYPSINIPSPTSPPNTLGGATLASRSYRSDQPTPSSRSTFAESDYAHPGGRDKQPVAPRRMQTPAPDTPSGSNASVEIFKSFRVSMDDPCYKVLPAALKKYQINAPWDQYALYIVYGDQERCLGLEEKPLILFKQLDKEGKKPMFMLRKTNNAQVDIGNEAPGSAGLGSARGAATGYDPPGGII", "values": [
      {"measurement": "binding", "value": "binds"}
    ]}
  ]
}
